# Patent publication US20120004157A1, “HYDROXYPROLINE COMPOSITIONS AND USES THEREOF” (Bergen Teknologioverforing AS, priority 2007, published 2012)
# Test system: Atlantic salmon (Salmo salar)
# Test: 88 days growth experiment, growth and feed performance
# Assay type: in vivo
# Conditions: 88 days feeding, Diets 2-5 = 0.7, 1.4, 2.8, 5.6 gkg−1 added hydroxyproline, mean ± SD
# Excerpt: The diets used were composed such that they are equal in protein, lipid and energy, and designed to vary only in level of Hydroxyproline. The small amounts of Hydroxyproline added (L-4-Hydroksyproline, >99.0% pure, Fluka BioChemika. Sigma-Aldrich Chemie GmbH) were exchanged with fish meal, and the diets were otherwise adjusted with the content of raw wheat to secure equal chemical composition. Five different levels of Hydroxyproline were used in a regression design with two replicates for each level, except the diet without Hydroxyproline addition that was run in triplicate tanks. The levels used of hydroxyproline were 0, 0.7 gkg^−1, 1.4 gkg^−1, 2.8 gkg^−1 and 5.6 gkg^−1. As a negative control, Proline (L-Proline, (Hydroxy-L-Proline Free) Sigma grade, Sigma Chemical Company) was added to a level of 2.8 gkg^−1.
# Atlantic salmon (Salmo salar) was obtained from Salmobreed May 2006. The fish was prevaccinated with Trippel Forte and was acclimated for 56 days before the trial started. The fish was given EWOS Opal Boost 50 3A, 3 mm pellets during this period. The fish was randomly distributed among 14 fiberglass tanks (1.5×1.5×1 m^3) with 80 fish per tank. Diet 1 and Diet 6 were run in triplicate tanks. Diet 2, Diet 3, Diet 4 and Diet 5 was run in duplicate tanks. Data are given also for a fish meal diet with no plant protein included. This diet was run simultaneously with fish of the same size, origin and treatment. This diet (Diet 7) was run in 2 m×2 m×1 m tanks in triplicate in a parallel experiment. […] Feed intake was measured daily as the difference between total feed given and total uneaten feed collected. Feed intake for the total experimental period was measured as the sum of the daily feed intakes, divided by feeding days and average fish weight during the experimental period; (start weight+final weight)/2. […]
# The six experimental diets were randomly assigned to the 14 tanks, with 3 replicate tanks for Diet 1 and Diet 6 and to duplicate tanks for the other experimental diets. Initial fish weights and lengths were recorded. […] Final weights were determined for each fish in all tanks. […]
smiles,measurement,setting,value
"O=C(O)[C@@H]1C[C@@H](O)CN1 [Hydroxyproline, L-4-Hydroksyproline]",Condition factor,,no difference or significant regressions
same,DOP,dressing out percentage,no difference or significant regressions
same,HSI,hepatosomatic index,no difference or significant regressions
